Source: PMC6035221, “Interaction between parasite-encoded JAB1/CSN5 and macrophage migration inhibitory factor proteins attenuates its proinflammatory function” (Scientific Reports, 2018)
Results are given in words; binding and its absence hold for the method and conditions named. Binding seen in cells or lysates may run through a third protein. Here binding means that the protein was enriched with, or labelled near, the bait; the list need not be complete. Sequences can lack the tags named with a protein.

Biological target: T1, Entamoeba histolytica MIF (EhMIF), endogenous (Entamoeba histolytica (endogenous in trophozoites)) (UniProt C4LV00)
T1 sequence: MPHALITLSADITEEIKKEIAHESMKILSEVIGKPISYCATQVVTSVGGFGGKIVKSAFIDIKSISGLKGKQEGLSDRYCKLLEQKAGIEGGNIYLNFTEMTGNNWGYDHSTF
Test: affinity purification with mass spectrometry; anti-EhMIF rabbit serum or rabbit IgG cross-linked to Protein A Dynabeads, 500 µl amebic lysate (20 mM Tris HCl pH 8, 137 mM NaCl, 1% TritonX-100, 2 mM EDTA), overnight at 4 °C; eluate analysed by mass spectrometry

B1: Entamoeba histolytica-encoded JAB1 (EhJAB1), endogenous (protein, UniProt C4LTS3 1-318)
chain: MGEEAAYKEWEKVNGVKYIEEDKLLEWNDSEREQIFKDRPWKKDPYYFKKCYVSSVALLKMVMHAKQGEPLEIMGILIGQTKGDSFVITDVVSLPVEGTETRVNASADCDAYMLQYGEYKNSTGFKEPFCGWYHSHPSYKCWLSGIDVATEKLHQSINDPWIAIVVDPVTTSTNGKIEIGAFRTFPEGFKPQQKAEMKKVLPSEKIADFGSYYDSYYSIKVELFKTKLDDQVLRLLWHEYWINTLAATAIISSRDVMDEKIIDLYDKFTAELKNNKSNVVDACGAILDDAKEIQMIYERGIKSLDLKNILFNQKVTGK
B1 was tested, and the binding was “binds”.
